According to patent US20160326530:
Construct, isoform or probe ends are uncertain for at least one entry.

Amino acid sequences for entries named in this document (tags omitted). Residues count along the entry.
UniProt P14780, 112-445: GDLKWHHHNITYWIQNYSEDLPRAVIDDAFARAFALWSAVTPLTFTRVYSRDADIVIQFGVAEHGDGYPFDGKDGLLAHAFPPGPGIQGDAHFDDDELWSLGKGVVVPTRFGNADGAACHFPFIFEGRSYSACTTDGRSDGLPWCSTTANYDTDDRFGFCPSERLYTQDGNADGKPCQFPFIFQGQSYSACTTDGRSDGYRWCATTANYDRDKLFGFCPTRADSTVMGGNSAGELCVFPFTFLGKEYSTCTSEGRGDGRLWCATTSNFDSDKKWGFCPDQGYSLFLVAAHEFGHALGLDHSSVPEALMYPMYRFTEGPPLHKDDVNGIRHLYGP

Each sequence was assayed against MMP-9 catalytic domain (Homo sapiens) (UniProt P14780) (assay: SELEX). Conditions: purified recombinant protein; protein details: C-terminal 6-His, Biomol International; single-stranded DNA.
In the case of “GCCTGTTGTGAGCCTCCTGTCGAATCGTATGGCACGGGGTTGGTGTTGGGTTGGTTGAGCGTTTATTCTTGTCTCCC [8F14]”, the selection result is reported as “selected”. For “GCCTGTTGTGAGCCTCCTGTCGAACCTGCGCCGTGATTAGGGGTGGGGGGGTGGTTGAGCGTTTATTCTTGTCTCCC [8F67]”, the selection result was “selected”. In the case of “GCCTGTTGTGAGCCTCCTGTCGAAGCGGGGTTTGGTGGGTCTGGGGTTGTTGGTTTGAGCGTTTATTCTTGTCTCCC [8F44]”, the selection result is reported as “selected”. “GCCTGTTGTGAGCCTCCTGTCGAATGGACGGTGGGTTGGGGCGGGGGGTGTCCATTGAGCGTTTATTCTTGTCTCCC [11F2]” was tested, and the selection result was “selected”. With “GCCTGTTGTGAGCCTCCTGTCGAACCGCGAGGGTTTGGCTTACGGCGCCTGGCGTTGAGCGTTTATTCTTGTCTCCC [8F27]” the selection result was “selected”. In the case of “GCCTGTTGTGAGCCTCCTGTCGAATTGGTGGGATGGGGGGGGGGTTGTTCGGCTTTGAGCGTTTATTCTTGTCTCCC [8F5]”, the selection result is reported as “selected”. In the case of “GCCTGTTGTGAGCCTCCTGTCGAACTGGCGCGGGGTTGGTGTCGGGTTTGGTTTTTGAGCGTTTATTCTTGTCTCCC [8F19]”, the selection result is reported as “selected”. In the case of “GCCTGTTGTGAGCCTCCTGTCGAACCGGGGTTTGGTGGGTCTGGGGTAGTTGGCTTGAGCGTTTATTCTTGTCTCCC [11F57]”, the selection result is reported as “selected”. For “GCCTGTTGTGAGCCTCCTGTCGAATGGGGTTTGGTGGGTTTGGGGTTGCTGGCCTTGAGCGTTTATTCTTGTCTCCC [11F76]”, the selection result was “selected”. In the case of “GCCTGTTGTGAGCCTCCTGTCGAATTGGGGTTTGGTGGGTCTGGGGTTGCGGGTTTGAGCGTTTATTCTTGTCTCCC [8F68]”, the selection result is reported as “selected”. “GCCTGTTGTGAGCCTCCTGTCGAATGAGGGGGGTGGATGGGAGGGTTCCGCACGTTGAGCGTTTATTCTTGTCTCCC [8F65]” was tested, and the selection result was “selected”. In the case of “GCCTGTTGTGAGCCTCCTGTCGAACCGTTGGGATTGGCTTCGGTGCCTGGCGTGTTGAGCGTTTATTCTTGTCTCCC [8F50]”, the selection result is reported as “selected”. For “GCCTGTTGTGAGCCTCCTGTCGAATGGTGGTTGGTGGGGTGGAGGTTAGGTACCTTGAGCGTTTATTCTTGTCTCCC [8F11]”, the selection result was “selected”. In the case of “GCCTGTTGTGAGCCTCCTGTCGAATAGGGTTTGGTGGGTCTGGGGTTGCTGGCCTTGAGCGTTTATTCTTGTCTCCC [11F89]”, the selection result is reported as “selected”. For “GCCTGTTGTGAGCCTCCTGTCGAAGAAGTGGTTGGGGTATGGTTGGTACAGGTTTTGAGCGTTTATTCTTGTCTCCC [8F77]”, the selection result was “selected”. With “GCCTGTTGTGAGCCTCCTGTCGAATGGGGTTTGGTGGGTCTGGGGTTGCTGGCCTTGAGCGTTTATTCTTGTCTCCC [11F46]” the selection result was “selected”.
